Experimental findings from PubChem BioAssay AID2685 (National Center for Advancing Translational Sciences (NCATS), 2010) are described below.

A short description of this test: qHTS Assay for Lipid Storage Modulators in Drosophila S3 Cells.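 For cell number change: cells counted by Cell Tracker Red CMTPX staining in the red channel.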 Particulars: BODIPY lipid droplet fluorescence, 18-24 h; for cell number change: measured here: cell count max response, cells fed with added oleic acid. Put shortly: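 Drosophila S3 cells got compounds at several concentrations plus oleic acid (400 uM solution). Laser-scanning cytometry with 488 nm excitation read lipid droplets at 500-530 nm and cells at 575-640 nm. Percent activity was relative to 20 uM Triacsin C.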

[1] abbreviates: measured here: lipid fluorescence (Fed channel) AC50, cells fed with added oleic acid.
Where [2] appears, read: measured here: cell number channel AC50, cells fed with added oleic acid.

The other results are listed elsewhere or left out. Further columns of the screen follow, without active or inactive calls. Compounds called inactive in the main read-out are mostly missing here. The note in brackets gives the kind of curve behind each potency; many fits are weak.

Consider `Cn1nnc(NC(=O)c2cccc([N+](=O)[O-])c2)n1`, for which the cell number change was -4.38%.

Take `CC(CNS(=O)(=O)c1cc(Cl)ccc1Cl)CN(C)C` (configuration not stated): the cell number change was -22.9%. For the same compound, the AC50 under setting [1] was 20.6 µM [falling, partial curve].

With `Cc1ccc(S(=O)(=O)N2CCOCC2)cc1NC(=O)C1CC(=O)N(c2ccc3c(c2)OCCO3)C1` (configuration not stated), the AC50 under setting [2] was 0.116 µM [falling, full curve, poor fit].

In the case of `Cn1cc(/C(Cc2ccccc2)=N\O)c2ccccc21`, the cell number change was found to be 42.2%. In addition, the AC50 under setting [2] was 1.84 µM [rising, full curve, poor fit]. Moreover, the AC50 under setting [1] was 0.731 µM [rising, single point].

Consider `O=C(CN1CCN(c2ccccc2)CC1)N1N=CCC1c1ccccc1` (configuration not stated), for which the cell number change is 17.2%. For the same compound, under setting [1], the AC50 was 20.6 µM [rising, single point].

With `Cc1cccc(C)c1NC(=O)Nc1cccs1`, the cell number change came out at 9.51%. The AC50 under setting [1] was 0.00517 µM [rising, full curve, poor fit].

As for `CN(C)c1ccc(C(CNC(=O)c2ccco2)N2CCCC2)cc1` (configuration not stated), the cell number change turned out to be 16.7%. Besides, the concentration at half-maximal activity (AC50) under setting [1] is 29.1 µM [rising, single point].

Consider `CCC1CCCCN1CCCNC(=O)C1CCN(Cc2nc(-c3ccc(Cl)cc3)oc2C)CC1` (configuration not stated), for which the cell number change is -0.236%. Also, the AC50 under setting [1] is 29.1 µM [rising, partial curve].

Regarding `Cc1c(C(=O)N/N=C/c2ccc(Cl)cc2)[nH]c2ccc(Cl)cc12`, the cell number change was -48.6%. For the same compound, the AC50 under setting [2] was 25.9 µM [falling, partial curve, poor fit]. Also, the AC50 under setting [1] is 25.9 µM [falling, partial curve].

In the case of `O=c1c(O)c(-c2ccc(O)cc2O)oc2cc(O)cc(O)c12`, the cell number change is -32.4%. In addition, the AC50 under setting [2] was 23.1 µM [falling, single point]. Under setting [1], the AC50 is 0.58 µM [rising, single point].

As to `CCC(C)NC(=O)c1cc2c(=O)n3ccccc3nc2s1` (configuration not stated), the cell number change was 8.33%. For the same compound, the AC50 under setting [1] was 29.1 µM [rising, single point].

On to `CCCCN(C)C(=O)c1nc2ccccn2c1CN1CCN(c2cnccn2)CC1`, for which the cell number change was 16.4%.

Turning to `Nc1ccc(-c2nnc(-c3ccc(-c4ccccc4)cc3)o2)cc1`, the cell number change is -36.8%. Further, the AC50 under setting [2] is 29.1 µM [falling, single point]. Also, the AC50 under setting [1] was 0.116 µM [rising, single point].

`CCn1c(SCC(=O)Nc2nnc(C)s2)nnc1C(C)NC(=O)c1ccccc1F` (configuration not stated): under setting [1], the AC50 is 29.1 µM [rising, single point].

As for `COc1ccc2[nH]c(C)c(CCN(Cc3cccs3)C(=S)Nc3ccccc3OC)c2c1`, the cell number change was determined as 36.9%. For the same compound, under setting [2], the AC50 is 0.184 µM [rising, full curve, poor fit].

For `O=C1CC(N2CCN(C/C=C/c3ccccc3)CC2)C(=O)N1Cc1cccs1` (configuration not stated), the cell number change is -74.3%. The AC50 under setting [2] was 20.6 µM [falling, partial curve]. Also, the AC50 under setting [1] is 29.1 µM [falling, single point].

As to `COc1cccc2c(=O)c(C/C=C(/C)Cl)c(C)[nH]c12`, the cell number change is -12%. In addition, the AC50 under setting [1] was 0.517 µM [falling, single point].

Consider `O=C(c1ccc2snnc2c1)N1CCN(c2ccccn2)CC1`, for which the cell number change was -31.6%. Moreover, under setting [2], the AC50 was 0.517 µM [falling, full curve, poor fit]. Moreover, under setting [1], the AC50 was 0.082 µM [falling, full curve, poor fit].

`O=C(NS(=O)(=O)Oc1ccc(F)c(Cl)c1)OC[C@@H]1CCCN2CCCCC12` (some centres not stated): the cell number change is 10.6%. For the same compound, under setting [1], the AC50 is 3.66 µM [rising, partial curve, poor fit].

Regarding `CC(OC(=O)c1cc(-c2cccnc2)nc2ccccc12)C(=O)Nc1ccc2ccccc2c1` (configuration not stated), the cell number change amounted to 31.6%. In addition, the half-maximal activity concentration (AC50) under setting [2] is 2.31 µM [rising, full curve]. Also, the AC50 under setting [1] is 0.231 µM [rising, full curve].

For the compound `O=C(c1cn(Cc2ccccc2)nc1-c1cccnc1)N1CCc2ccccc2C1`, the cell number change was -6.12%. Under setting [2], the AC50 was 0.103 µM [falling, partial curve, poor fit]. In addition, under setting [1], the AC50 was 20.6 µM [rising, partial curve, poor fit].

Turning to `Cc1ccc(OCC(=O)NCc2cccs2)cc1`, the cell number change is -30.1%. The AC50 under setting [2] was 0.103 µM [falling, full curve]. Under setting [1], the AC50 was 29.1 µM [falling, partial curve].

Regarding `O=C(c1ccc(S(=O)(=O)N2CCOCC2)cc1)N1CCN(c2ccccc2F)CC1`, the AC50 under setting [1] is 6.51 µM [falling, single point].

Turning to `Cc1ccc(-c2[nH]c(=S)[nH]c(=O)c2C#N)cc1`, the cell number change is -21.2%. Further, the AC50 under setting [2] is 6.51 µM [falling, single point]. The AC50 under setting [1] was 6.51 µM [falling, partial curve, poor fit].

As for `CCOc1ccccc1N1CCN(C(=O)C(F)(F)F)CC1`, the cell number change was found to be 15.9%. The AC50 under setting [1] is 18.4 µM [falling, partial curve].

In the case of `Cn1ccnc1C(=O)c1cc(SCC(=O)NC2CC2)nc2ccccc12`, the AC50 under setting [2] is 4.11 µM [rising, single point].

In the case of `O=C(NCCO)c1cc2c([nH]c3ccccc32)c(-c2ccc(F)cc2)n1`, the cell number change is -11.7%. The AC50 under setting [1] was 5.17 µM [rising, full curve].

Turning to `Nn1cc(-c2ccccc2)nc1SCC(=O)NCC1CCCO1` (configuration not stated), the cell number change was determined as 112%. Also, under setting [2], the AC50 was 23.1 µM [rising, single point].

Consider `CC(C)Cn1c(NCCO)nc2ccccc21`, for which the cell number change was -38.7%. For the same compound, the AC50 under setting [2] is 1.64 µM [falling, full curve].

`O=C(CN1CCC(n2nnc3cc(F)ccc32)CC1)Nc1ccc2c(c1)CCC2`: the AC50 under setting [2] was 2.31 µM [rising, partial curve].

For the compound `COc1ccc(NC(=S)N(CCCN2CCOCC2)Cc2cn(C)c3ccccc23)cc1`, the cell number change is -0.854%. The AC50 under setting [1] was 0.58 µM [rising, full curve, poor fit].

Consider `CCc1sc(C(=O)N2CCc3cc(OC)c(OC)cc3C2CC(=O)O)cc1C` (configuration not stated), for which the cell number change came out at 2.46%. Besides, the AC50 under setting [1] was 2.31 µM [falling, single point].

Regarding `CC(C)C(=O)NC(=S)Nc1ccc(S(=O)(=O)N2CCCC2)cc1`, the cell number change is -9.32%. Further, the AC50 under setting [1] is 0.517 µM [falling, full curve].

As to `CCC(C)(C)NC(=O)C(c1cccnc1)N(C(=O)c1csnn1)c1ccc(C)cc1` (configuration not stated), the cell number change is 4.35%.

On to `CC(NC(=O)c1ccc(CS(C)(=O)=O)cc1)C1CC2CCC1C2` (configuration not stated), for which the cell number change was determined as 7.92%. Also, the AC50 under setting [1] was 0.103 µM [falling, single point].

For the compound `Cc1ccc(OCC(=O)NC2CCS(=O)(=O)C2)cc1` (configuration not stated), the cell number change is -146%. Also, under setting [2], the AC50 was 0.731 µM [falling, single point]. Further, the AC50 under setting [1] was 0.00517 µM [falling, full curve, poor fit].

As for `CCn1c(SCC(=O)N2CCN(c3ccc(F)cc3)CC2)nnc1-c1ccncc1`, the cell number change stood at 3.64%. For the same compound, the AC50 under setting [1] was 0.0731 µM [falling, full curve, poor fit].

In the case of `Cc1noc(C)c1S(=O)(=O)NCCCN1CCN(Cc2ccccc2)CC1`, the cell number change is -3.64%. In addition, the AC50 under setting [1] is 0.00461 µM [falling, full curve, poor fit].

On to `CN(CCOc1ccc(Cl)cc1)c1ccc(S(=O)(=O)N2CCCCC2)cn1`, for which the cell number change came out at 15.6%. Further, the AC50 under setting [1] was 0.13 µM [rising, full curve, poor fit].

Turning to `COc1cccc(NC(=O)CSc2nc3ccccc3c(=O)n2CCCC(=O)NCC2CCCO2)c1` (configuration not stated), the cell number change was -19.4%. For the same compound, the AC50 under setting [1] was 29.1 µM [falling, single point].

With `CC(=O)Nc1cccc(N2C(=O)CCC2=O)c1`, the cell number change is -42.4%. The AC50 under setting [2] was 2.91 µM [falling, full curve]. Under setting [1], the AC50 was 6.51 µM [falling, single point].

For the compound `O=C(NCc1nnnn1-c1ccc(F)cc1)C1CC(=O)N(c2ccc(F)cc2)C1` (configuration not stated), the cell number change stood at 27.8%.

Take `O=C(NNc1nc2c(F)cc(F)cc2s1)C1COc2ccccc2O1` (configuration not stated): the cell number change is -10.6%. Moreover, under setting [2], the AC50 is 6.51 µM [rising, partial curve, poor fit].

Consider `COc1ccc(Cl)cc1NC(=O)CN(C)C(=O)CCNC(=O)c1ccccc1OC`, for which the cell number change is -7.57%. For the same compound, under setting [2], the AC50 is 0.517 µM [rising, full curve, poor fit]. Also, the AC50 under setting [1] is 3.66 µM [falling, full curve, poor fit].

For the compound `O=C(O)c1ccccc1C(=O)Nc1ccccn1`, the cell number change is -204%. Moreover, the AC50 under setting [2] was 23.1 µM [falling, partial curve]. Moreover, under setting [1], the AC50 is 20.6 µM [falling, partial curve].

Take `COCCNC(=S)Nc1ccccc1Cc1ccccc1`: the cell number change came to 20.1%. Under setting [1], the AC50 is 29.1 µM [rising, single point].

For `COc1ccc(S(=O)(=O)Cc2ccc(C(=O)N3CCc4ccccc4C3)o2)cc1`, the cell number change is 12.7%. For the same compound, the AC50 under setting [1] was 2.06 µM [rising, full curve, poor fit].

On to `Cc1ccc(N2C(=O)C3NN=C(C(=O)OCc4ccccc4)C3C2=O)c(C)c1` (configuration not stated), for which the cell number change is -6.11%. Besides, under setting [1], the AC50 is 0.0259 µM [falling, full curve, poor fit].

As for `Cc1ccc(N=Nc2c(N)nn(-c3ccccc3)c2N)cc1`, the cell number change was -23.3%. Further, under setting [2], the concentration at half-maximal activity (AC50) is 0.259 µM [falling, full curve, poor fit]. For the same compound, the AC50 under setting [1] was 11.6 µM [falling, partial curve, poor fit].

On to `CCCOc1ccc(-c2nnc(-c3ccncc3)o2)cc1`, for which the cell number change was -13.5%.

Regarding `CC(=O)c1ccc(-n2nnnc2SCC(=O)Nc2cccc(NC(=O)c3ccco3)c2)cc1`, the cell number change is -28.6%. Besides, the AC50 under setting [1] is 29.1 µM [falling, single point].

`CCN(CC)CCCNC(=O)Cn1ncc2c(=O)oc3ccc(C)cc3c21`: the cell number change turned out to be 9.02%. Also, the AC50 under setting [1] is 29.1 µM [falling, single point].

In the case of `CCCCCCCCOC(=O)c1ccc(N)cc1`, the cell number change is -28.2%. Besides, the AC50 under setting [1] was 16.4 µM [falling, partial curve].

With `COc1ccc(NS(=O)(=O)c2cc(NC(=O)/C=C/c3cc(OC)c(OC)c(OC)c3)ccc2N2CCCCC2)cc1`, the cell number change was 3.85%. The AC50 under setting [1] was 1.84 µM [rising, partial curve].

On to `Cc1ccc(C(=O)N/C(=C\c2ccc3c(c2)OCO3)C(=O)Nc2ccc(C(=O)O)cc2)cc1`, for which the cell number change was 18%.

In the case of `CCOC(=O)C(NC(=O)NC1CCCCC1)(c1ccccc1)C(F)(F)F` (configuration not stated), the AC50 under setting [1] was 29.1 µM [falling, single point].

For the compound `S=c1[nH]nc(Cc2ccccc2)n1-c1ccc(Cl)cc1`, the cell number change is -7.69%. For the same compound, under setting [1], the AC50 was 1.3 µM [falling, full curve].
